No constants are given. Whether binding was seen depends on the method and setting. Binding seen in cells or lysates may run through a third protein. Some binding calls cover weakened binding; strength is not graded here.
Columns and labels:
[1] = molecular target: T1, USP33, endogenous in HeLa-ACE2 cells (human (endogenous in HeLa-ACE2)) (UniProt Q8TEY7); assay: co-IP
T1 sequence: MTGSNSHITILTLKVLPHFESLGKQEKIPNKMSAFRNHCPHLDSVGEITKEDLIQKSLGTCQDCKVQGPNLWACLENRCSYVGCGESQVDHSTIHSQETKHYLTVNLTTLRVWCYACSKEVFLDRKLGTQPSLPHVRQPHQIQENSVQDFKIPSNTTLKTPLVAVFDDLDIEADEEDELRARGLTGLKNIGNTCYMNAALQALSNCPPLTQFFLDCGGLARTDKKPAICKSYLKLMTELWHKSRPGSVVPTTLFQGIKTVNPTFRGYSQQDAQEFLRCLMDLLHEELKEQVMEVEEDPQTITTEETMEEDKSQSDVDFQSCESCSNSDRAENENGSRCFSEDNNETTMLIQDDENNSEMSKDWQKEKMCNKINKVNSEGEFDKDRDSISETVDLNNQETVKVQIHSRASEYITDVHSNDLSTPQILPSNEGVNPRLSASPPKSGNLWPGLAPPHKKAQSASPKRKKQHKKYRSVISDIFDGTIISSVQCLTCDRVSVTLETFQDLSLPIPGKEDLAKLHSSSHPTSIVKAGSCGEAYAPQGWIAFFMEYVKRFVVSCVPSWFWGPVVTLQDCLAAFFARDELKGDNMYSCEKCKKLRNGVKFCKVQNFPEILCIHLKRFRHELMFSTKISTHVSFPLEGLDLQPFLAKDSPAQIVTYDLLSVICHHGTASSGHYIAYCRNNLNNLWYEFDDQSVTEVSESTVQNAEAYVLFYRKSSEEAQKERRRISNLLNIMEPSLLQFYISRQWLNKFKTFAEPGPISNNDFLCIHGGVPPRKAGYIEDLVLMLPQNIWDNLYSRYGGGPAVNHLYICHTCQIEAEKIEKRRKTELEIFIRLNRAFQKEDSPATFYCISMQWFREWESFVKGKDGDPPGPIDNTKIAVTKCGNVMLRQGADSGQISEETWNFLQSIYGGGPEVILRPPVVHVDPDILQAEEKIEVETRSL

Protein sequences, listed by entry. Tags and fused reporters are not part of them.
UniProt P0DTC4: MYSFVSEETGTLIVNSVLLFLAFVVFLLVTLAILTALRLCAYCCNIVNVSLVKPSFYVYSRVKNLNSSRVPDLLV
UniProt P0DTD8: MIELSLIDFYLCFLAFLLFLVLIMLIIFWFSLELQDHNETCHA

[2] = molecular target: T2, USP33 in HEK293T cell lysate (Figure 1D, Figure 1F) (human) (UniProt Q8TEY7); assay: co-IP
T2 sequence: T1 sequence

Row | Substance | binding [1] | binding [2]
1 | SARS-CoV-2 E protein made in infected cells (from UniProt P0DTC4 1-75) | binds | 
2 | SARS-CoV-2 ORF7b (from UniProt P0DTD8 1-43) |  | binds
3 | SARS-CoV-2 membrane (M) protein (from UniProt P0DTC5 1-222) |  | binds

Source: paper PMC11558077
